Laboratory results as given in US9090538B2, “Uses of esteramide compounds” (priority 2010, dated 2015).
Some of these results come from one statement about several compounds together.

Assay: Solubility of certain agrochemical actives in solvents (overall conclusion)
Assay type: physicochemical
Conditions: conclusion from Table (I)

In the case of `COC(=O)C(=O)N(C)C` [Compound 1, methyl 2-(dimethylamino)-2-oxoacetate], the “Solvent quality for agrochemical actives” value is reported as “good solvents for most of agrochemical actives”.

For `CCOC(=O)C(=O)N(C)C` [Compound 2, ethyl 2-(dimethylamino)-2-oxoacetate], the “Solvent quality for agrochemical actives” value was “good solvents for most of agrochemical actives”.

With `CCCCC(CC)COC(=O)C(=O)N(C)C` (stereo not shown) [Compound 3, 2-ethyl-hexyl 2-(dimethylamino)-2-oxoacetate] the “Solvent quality for agrochemical actives” value was “good solvents for most of agrochemical actives”.

For `CCCCCCCCCCOC(=O)C(=O)N(C)C` [Compound 4, n-decyl 2-(dimethylamino)-2-oxoacetate], the “Solvent quality for agrochemical actives” value was “good solvents for most of agrochemical actives”.
